No constants are given. Whether binding was seen depends on the method and setting. For some assays here: Binding calls can cover weak binding; strength is not graded here.
Columns and labels:
[1] = target: RlpA-Δ32, fluorescently labeled (P. aeruginosa PAO1) (UniProt Q9X6V6); assay: MST; both purified
[2] = target: RlpA-Δ32 (P. aeruginosa PAO1) (UniProt Q9X6V6); assay: SPR; both purified
[3] = target: T1, RlpA-SPOR (P. aeruginosa PAO1) (UniProt Q9X6V6); assay: SPR; both purified
T1 sequence: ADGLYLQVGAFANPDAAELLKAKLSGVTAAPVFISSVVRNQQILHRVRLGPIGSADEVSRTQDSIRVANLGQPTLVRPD

Substance | binding [1] | binding [2] | binding [3]
AlgO (from UniProt Q9HYY3) | no binding | no binding | 
LptE (from UniProt Q9HX32) |  | binds | 
MltA (from UniProt Q9I4B6) (enzyme) |  | binds | 
PA4063 (from UniProt Q9HWW5) |  |  | no binding

From article PMC9712689
